According to patent publication US20030219427A1, “TPL-2/COT kinase and methods of use” (priority 1998, published 2003):
No constants are given. Whether binding was seen depends on the method and setting. For some assays here: In cells and extracts the contact can be indirect. Some results given as binding are weak or reduced against the parent protein; the word gives no strength. For some assays here: Tags and fused reporters may be left off the sequences shown.

Experiments:
[1] = molecular target: T1, p105(369-896) (Homo sapiens (Human)) (UniProt P19838); assay: co-expression in Sf9 cells, purification of the complex from lysates
T1 sequence: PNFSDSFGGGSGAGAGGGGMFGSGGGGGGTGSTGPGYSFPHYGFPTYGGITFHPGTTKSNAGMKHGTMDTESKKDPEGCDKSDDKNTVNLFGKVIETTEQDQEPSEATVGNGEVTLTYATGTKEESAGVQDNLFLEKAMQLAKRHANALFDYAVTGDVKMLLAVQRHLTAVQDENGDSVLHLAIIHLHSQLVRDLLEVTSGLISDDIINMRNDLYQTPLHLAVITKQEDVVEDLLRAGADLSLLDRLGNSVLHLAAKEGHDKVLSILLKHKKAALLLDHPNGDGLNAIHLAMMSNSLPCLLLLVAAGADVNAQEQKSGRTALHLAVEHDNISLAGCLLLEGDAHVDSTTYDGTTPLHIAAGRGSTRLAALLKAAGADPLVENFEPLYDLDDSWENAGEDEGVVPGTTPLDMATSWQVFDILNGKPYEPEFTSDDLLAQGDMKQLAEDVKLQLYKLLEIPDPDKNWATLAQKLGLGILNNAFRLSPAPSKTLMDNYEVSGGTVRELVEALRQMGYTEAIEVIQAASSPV

[2] = molecular target: T1, p105(369-896) (Homo sapiens (Human)); assay: anti-Flag purification of the co-expressed complex from Sf9 cells
[3] = molecular target: T2, p105(472-896) (Homo sapiens (Human)) (UniProt P19838); assay: co-expression in Sf9 cells, purification of the complex from lysates
T2 sequence: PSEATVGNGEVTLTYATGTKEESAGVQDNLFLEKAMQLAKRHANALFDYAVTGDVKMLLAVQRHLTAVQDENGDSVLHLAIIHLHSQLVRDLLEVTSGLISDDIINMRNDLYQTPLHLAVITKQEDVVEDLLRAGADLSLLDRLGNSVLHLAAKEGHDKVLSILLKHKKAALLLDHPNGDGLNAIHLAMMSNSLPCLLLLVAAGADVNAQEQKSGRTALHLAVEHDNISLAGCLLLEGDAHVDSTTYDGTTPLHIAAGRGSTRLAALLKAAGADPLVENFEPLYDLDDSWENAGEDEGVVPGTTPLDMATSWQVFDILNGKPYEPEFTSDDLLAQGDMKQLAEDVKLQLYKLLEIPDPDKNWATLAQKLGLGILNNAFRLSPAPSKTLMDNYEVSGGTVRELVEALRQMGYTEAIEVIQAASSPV

[4] = molecular target: T3, p105 C-terminus (residues 459 to 969) (Homo sapiens (Human)) (UniProt P19838); assay: yeast two-hybrid assay
T3 sequence: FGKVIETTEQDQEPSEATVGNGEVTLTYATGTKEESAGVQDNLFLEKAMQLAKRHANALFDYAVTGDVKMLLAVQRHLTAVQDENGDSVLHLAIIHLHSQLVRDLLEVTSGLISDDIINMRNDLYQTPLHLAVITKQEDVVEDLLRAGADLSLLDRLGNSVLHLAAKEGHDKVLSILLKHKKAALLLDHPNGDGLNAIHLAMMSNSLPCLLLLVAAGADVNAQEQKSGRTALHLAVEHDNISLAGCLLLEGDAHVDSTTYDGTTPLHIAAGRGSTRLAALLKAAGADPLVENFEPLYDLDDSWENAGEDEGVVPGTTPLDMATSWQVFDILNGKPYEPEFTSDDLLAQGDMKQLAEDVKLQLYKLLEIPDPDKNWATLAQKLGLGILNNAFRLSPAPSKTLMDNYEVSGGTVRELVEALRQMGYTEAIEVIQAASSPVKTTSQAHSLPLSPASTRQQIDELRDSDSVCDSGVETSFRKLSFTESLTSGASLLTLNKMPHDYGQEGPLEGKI

[5] = molecular target: HA-p105 (Homo sapiens (Human)) (UniProt P19838); assay: immunoprecipitation and Western blot from co-transfected 293 cells
[6] = molecular target: endogenous NF-κB1 p105 (HeLa, Jurkat and 293 cells) (UniProt P19838); assay: immunoprecipitation from transiently transfected 293 cells
[7] = molecular target: HA-p105 (Homo sapiens (Human)) (UniProt P19838); assay: co-expression in 293 cells, anti-Myc immunoprecipitation
[8] = molecular target: HA-p105 (Homo sapiens (Human)) (UniProt P19838); assay: anti-HA immunoprecipitation and Western blot from co-transfected 293 cells
[9] = molecular target: NF-κB1 p105 (Homo sapiens (Human)) (UniProt P19838); assay: co-immunoprecipitation of in vitro translated 35S-labelled proteins
[10] = molecular target: myc-p105 (Homo sapiens (Human)) (UniProt P19838); assay: anti-myc immunoprecipitation from pulse-labelled co-transfected 3T3 cells (FIG. 6A)
[11] = molecular target: HA-p105 (Homo sapiens (Human)) (UniProt P19838); assay: anti-HA co-immunoprecipitation from co-transfected 293 cells
[12] = molecular target: HA-p105Δ498-541 (Homo sapiens (Human)) (UniProt P19838); assay: as above
[13] = molecular target: HA-p105L842A (Homo sapiens (Human)) (UniProt P19838); assay: as above
[14] = molecular target: HA-p105ΔDD (Homo sapiens (Human)) (UniProt P19838); assay: as above
[15] = molecular target: HA-p105 (1-892) (Homo sapiens (Human)) (UniProt P19838); assay: immunoprecipitation and Western blot from co-transfected 293 cells
[16] = molecular target: NF-κB1 p105 (Homo sapiens (Human)) (UniProt P19838); assay: co-immunoprecipitation of in vitro translated proteins
[17] = molecular target: biotinylated TPL-2398-467 peptide; assay: surface plasmon resonance (BIAcore), biotinylated peptide on streptavidin chip, p105 protein injected
[18] = molecular target: TPL-2 (Homo sapiens (Human)) (UniProt P41279); assay: GST pull-down of in vitro translated 35S-labelled TPL-2
[19] = molecular target: Myc-TPL-2 (Homo sapiens (Human)) (UniProt P41279); assay: incubation of Myc-TPL-2 immunoprecipitates with recombinant protein
[20] = molecular target: T4, p105(400-896) (Homo sapiens (Human)) (UniProt P19838); assay: co-expression in HEK293 cells, isolation of the complex from lysates
T4 sequence: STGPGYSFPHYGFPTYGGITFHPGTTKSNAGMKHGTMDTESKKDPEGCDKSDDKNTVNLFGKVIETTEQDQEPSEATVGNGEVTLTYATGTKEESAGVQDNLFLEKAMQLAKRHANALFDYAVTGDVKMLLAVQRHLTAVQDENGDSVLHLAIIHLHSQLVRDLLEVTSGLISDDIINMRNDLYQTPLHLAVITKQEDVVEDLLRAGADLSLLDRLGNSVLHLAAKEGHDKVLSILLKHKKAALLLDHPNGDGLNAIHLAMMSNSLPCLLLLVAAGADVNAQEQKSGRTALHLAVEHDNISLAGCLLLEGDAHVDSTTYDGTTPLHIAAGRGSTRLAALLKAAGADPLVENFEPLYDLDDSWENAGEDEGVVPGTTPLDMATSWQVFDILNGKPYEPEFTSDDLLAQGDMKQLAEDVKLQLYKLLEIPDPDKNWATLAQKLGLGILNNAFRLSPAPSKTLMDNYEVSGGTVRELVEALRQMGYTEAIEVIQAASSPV

[21] = molecular target: T5, p105(444-896) (Homo sapiens (Human)) (UniProt P19838); assay: as above
T5 sequence: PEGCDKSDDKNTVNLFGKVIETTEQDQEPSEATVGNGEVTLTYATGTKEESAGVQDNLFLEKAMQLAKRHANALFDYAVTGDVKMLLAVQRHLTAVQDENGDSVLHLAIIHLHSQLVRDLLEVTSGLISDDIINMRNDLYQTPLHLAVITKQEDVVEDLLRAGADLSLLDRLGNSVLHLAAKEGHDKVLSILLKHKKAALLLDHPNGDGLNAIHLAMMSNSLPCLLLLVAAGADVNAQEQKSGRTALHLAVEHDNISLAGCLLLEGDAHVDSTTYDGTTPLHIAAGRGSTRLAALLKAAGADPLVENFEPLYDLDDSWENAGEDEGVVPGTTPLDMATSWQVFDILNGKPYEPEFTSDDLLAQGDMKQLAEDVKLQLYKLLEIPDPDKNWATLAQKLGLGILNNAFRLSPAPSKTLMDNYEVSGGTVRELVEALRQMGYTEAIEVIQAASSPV

Q: Which binding [1] does the source give for “COT(1-467, M30V, D253N) (from UniProt P41279 1-467)” here?
A: binds

Q: With “COT(30-467, D253N) (from UniProt P41279 30-467)” as the molecule, how does the binding [2] read?
A: binds

Q: And the binding [1]?
A: binds

Q: What about the binding [3] of the same molecule?
A: binds

Q: How did the binding [4] turn out when “GAL4 fusion of just the C-terminal 92 amino acids of TPL-2 (from UniProt P41279 376-467)” was run?
A: binds

Q: “M30 TPL-2ΔC (from UniProt P41279 30-397)” was tested. Which binding [5] did it give?
A: binds

Q: With Myc-TPL-2 (from UniProt P41279 1-467) as the molecule, how does the binding [6] read?
A: binds

Q: Which binding [7] does the source give for Myc-TPL-2ΔC (from UniProt P41279 1-397) here?
A: binds

Q: “P131 TPL-2ΔC (from UniProt P41279 131-397)” was tested. Which binding [5] did it give?
A: binds

Q: “Q104 TPL-2ΔC (from UniProt P41279 104-397)” was tested. Which binding [5] did it give?
A: binds

Q: TPL-2 (from UniProt P41279 1-467) was tested. Which binding [8] did it give?
A: binds

Q: And the binding [9]?
A: binds

Q: And the binding [10]?
A: binds

Q: And the binding [11]?
A: binds

Q: What about the binding [12] of the same molecule?
A: binds

Q: What about the binding [13] of the same molecule?
A: binds

Q: And the binding [14]?
A: binds

Q: Which results are given for TPL-2ΔC (from UniProt P41279 1-397)?
A: binding [8]: binds; binding [5]: binds; binding [15]: binds; binding [16]: binds

Q: For “recombinant p105 1-969 (from UniProt P19838 1-968)”, which binding [17] is on record?
A: binds

B1: recombinant p105808-892 protein (p105 DD) (other)
chain: DMKQLAEDVKLQLYKLLEIPDPDKNWATLAQKLGLGILNNAFRLSPAPSKTLMDNYEVSGGTVRELVEALRQMGYTEAIEVIQAA
Q: With B1 as the molecule, how does the binding [18] read?
A: binds

B2: recombinant p105498-969 protein (other)
chain: QDNLFLEKAMQLAKRHANALFDYAVTGDVKMLLAVQRHLTAVQDENGDSVLHLAIIHLHSQLVRDLLEVTSGLISDDIINMRNDLYQTPLHLAVITKQEDVVEDLLRAGADLSLLDRLGNSVLHLAAKEGHDKVLSILLKHKKAALLLDHPNGDGLNAIHLAMMSNSLPCLLLLVAAGADVNAQEQKSGRTALHLAVEHDNISLAGCLLLEGDAHVDSTTYDGTTPLHIAAGRGSTRLAALLKAAGADPLVENFEPLYDLDDSWENAGEDEGVVPGTTPLDMATSWQVFDILNGKPYEPEFTSDDLLAQGDMKQLAEDVKLQLYKLLEIPDPDKNWATLAQKLGLGILNNAFRLSPAPSKTLMDNYEVSGGTVRELVEALRQMGYTEAIEVIQAASSPVKTTSQAHSLPLSPASTRQQIDELRDSDSVCDSGVETSFRKLSFTESLTSGASLLTLNKMPHDYGQEGPLEGKI
Q: B2 was tested. Which binding [17] did it give?
A: binds

Q: And the binding [19]?
A: binds

B3: recombinant p105 498-806 (protein)
chain: QDNLFLEKAMQLAKRHANALFDYAVTGDVKMLLAVQRHLTAVQDENGDSVLHLAIIHLHSQLVRDLLEVTSGLISDDIINMRNDLYQTPLHLAVITKQEDVVEDLLRAGADLSLLDRLGNSVLHLAAKEGHDKVLSILLKHKKAALLLDHPNGDGLNAIHLAMMSNSLPCLLLLVAAGADVNAQEQKSGRTALHLAVEHDNISLAGCLLLEGDAHVDSTTYDGTTPLHIAAGRGSTRLAALLKAAGADPLVENFEPLYDLDDSWENAGEDEGVVPGTTPLDMATSWQVFDILNGKPYEPEFTSDDLLAQ
Q: With B3 as the molecule, how does the binding [17] read?
A: binds

B4: recombinant p105 497-782 (protein)
chain: VQDNLFLEKAMQLAKRHANALFDYAVTGDVKMLLAVQRHLTAVQDENGDSVLHLAIIHLHSQLVRDLLEVTSGLISDDIINMRNDLYQTPLHLAVITKQEDVVEDLLRAGADLSLLDRLGNSVLHLAAKEGHDKVLSILLKHKKAALLLDHPNGDGLNAIHLAMMSNSLPCLLLLVAAGADVNAQEQKSGRTALHLAVEHDNISLAGCLLLEGDAHVDSTTYDGTTPLHIAAGRGSTRLAALLKAAGADPLVENFEPLYDLDDSWENAGEDEGVVPGTTPLDMATS
Q: For B4, which binding [17] is on record?
A: binds

B5: Flag-COT(30-467) (enzyme, not shown: small tags and cut ends)
chain: MENLYASEEPAVYEPSLMTMCQDSNQNDERSKSLLLSGQEVPWLSSVRYGTVEDLLAFANHISNTAKHFYGQRPQESGILLNMVITPQNGRYQIDSDVLLIPWKLTYRNIGSDFIPRGAFGKVYLAQDIKTKKRMACKLIPVDQFKPSDVEIQACFRHENIAELYGAVLWGETVHLFMEAGEGGSVLEKLESCGPMREFEIIWVTKHVLKGLDFLHSKKVIHHDIKPSNIVFMSTKAVLVDFGLSVQMTEDVYFPKDLRGTEIYMSPEVILCRGHSTKADIYSLGATLIHMQTGTPPWVKRYPRSAYPSYLYIIHKQAPPLEDIADDCSPGMRELIEASLERNPNHRPRAADLLKHEALNPPREDQPRCTSLDSALLERKRLLSRKELELPENIADSSCTGSTEESEMLKRQRSLYIDLGALAGYFNLVRGPPTLEYG
Q: What does the source list for B5?
A: binding [20]: binds; binding [21]: binds
